Our source for the binding values is publication PMC10347840.

The chains behind the UniProt entries cited, without tags or fusion partners.
UniProt Q12888: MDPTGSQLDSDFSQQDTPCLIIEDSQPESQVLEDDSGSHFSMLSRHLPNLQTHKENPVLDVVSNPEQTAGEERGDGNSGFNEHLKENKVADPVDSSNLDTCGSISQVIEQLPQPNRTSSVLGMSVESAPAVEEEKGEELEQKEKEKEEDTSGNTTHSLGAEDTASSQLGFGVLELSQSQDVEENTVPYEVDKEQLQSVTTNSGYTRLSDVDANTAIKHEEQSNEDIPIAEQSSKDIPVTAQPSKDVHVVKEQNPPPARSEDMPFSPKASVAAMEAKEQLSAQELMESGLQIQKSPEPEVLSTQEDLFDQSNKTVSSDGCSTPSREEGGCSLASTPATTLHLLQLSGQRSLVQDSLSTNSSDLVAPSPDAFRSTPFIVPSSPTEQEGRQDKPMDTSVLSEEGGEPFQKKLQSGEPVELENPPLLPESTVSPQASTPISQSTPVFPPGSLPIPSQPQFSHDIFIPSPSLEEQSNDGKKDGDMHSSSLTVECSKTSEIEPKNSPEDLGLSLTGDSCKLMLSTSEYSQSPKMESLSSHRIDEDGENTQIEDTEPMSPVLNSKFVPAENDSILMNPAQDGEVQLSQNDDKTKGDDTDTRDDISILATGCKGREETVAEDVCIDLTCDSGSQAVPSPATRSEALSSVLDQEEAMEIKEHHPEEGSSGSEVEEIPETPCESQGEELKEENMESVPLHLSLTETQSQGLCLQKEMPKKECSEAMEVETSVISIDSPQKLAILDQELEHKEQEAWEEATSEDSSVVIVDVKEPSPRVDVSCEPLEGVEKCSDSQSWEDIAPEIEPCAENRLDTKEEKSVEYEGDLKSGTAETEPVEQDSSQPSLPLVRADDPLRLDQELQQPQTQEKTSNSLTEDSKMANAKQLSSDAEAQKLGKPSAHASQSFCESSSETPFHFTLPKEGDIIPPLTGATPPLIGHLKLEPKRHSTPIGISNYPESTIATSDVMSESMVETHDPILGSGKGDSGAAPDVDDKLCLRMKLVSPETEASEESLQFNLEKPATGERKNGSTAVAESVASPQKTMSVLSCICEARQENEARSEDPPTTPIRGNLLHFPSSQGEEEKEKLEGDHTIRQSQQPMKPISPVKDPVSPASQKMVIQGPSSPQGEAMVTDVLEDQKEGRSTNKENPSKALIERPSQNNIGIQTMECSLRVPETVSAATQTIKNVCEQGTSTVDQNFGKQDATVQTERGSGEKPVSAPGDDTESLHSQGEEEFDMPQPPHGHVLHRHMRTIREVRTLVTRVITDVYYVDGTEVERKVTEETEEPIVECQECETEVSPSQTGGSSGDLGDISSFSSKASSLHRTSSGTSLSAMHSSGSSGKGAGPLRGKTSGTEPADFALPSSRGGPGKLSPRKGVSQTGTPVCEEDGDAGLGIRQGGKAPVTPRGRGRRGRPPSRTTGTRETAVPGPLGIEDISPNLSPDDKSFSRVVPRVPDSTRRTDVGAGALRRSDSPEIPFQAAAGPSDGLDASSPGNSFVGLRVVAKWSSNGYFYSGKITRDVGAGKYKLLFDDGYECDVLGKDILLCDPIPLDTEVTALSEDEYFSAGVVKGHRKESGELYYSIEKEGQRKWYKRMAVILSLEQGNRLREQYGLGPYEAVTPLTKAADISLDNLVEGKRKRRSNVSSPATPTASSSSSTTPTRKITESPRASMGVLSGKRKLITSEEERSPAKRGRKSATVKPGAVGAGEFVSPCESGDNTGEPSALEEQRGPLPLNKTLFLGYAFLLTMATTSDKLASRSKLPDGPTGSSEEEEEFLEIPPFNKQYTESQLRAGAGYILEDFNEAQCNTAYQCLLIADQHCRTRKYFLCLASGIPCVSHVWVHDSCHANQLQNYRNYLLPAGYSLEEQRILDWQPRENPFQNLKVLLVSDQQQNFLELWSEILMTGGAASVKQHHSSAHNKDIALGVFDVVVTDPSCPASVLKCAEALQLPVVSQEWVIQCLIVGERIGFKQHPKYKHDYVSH

In the assay the target is 53BP1 (human (endogenous in NKYS)) (UniProt Q12888). As to the kind of experiment: co-IP; NKYS cell lysate (1 mg) in IP lysis buffer, antibody overnight at 4 °C, agarose beads 1 h at RT, five washes, SDS-PAGE and blot; which protein was precipitated is not given.

These are yes or no findings as the source states them, for the method shown. Binding seen in cells or lysates may run through a third protein. Some binding calls cover weakened binding; strength is not graded here.

B1: LMO2 (protein, UniProt P25791 1-158)
chain: MSSAIERKSLDPSEEPVDEVLQIPPSLLTCGGCQQNIGDRYFLKAIDQYWHEDCLSCDLCGCRLGEVGRRLYYKLGRKLCRRDYLRLFGQDGLCASCDKRIRAYEMTMRVKDKVYHLECFKCAACQKHFCVGDRYLLINSDIVCEQDIYEWTKINGMI
Take B1: the binding entry is recorded as “binds”.
